Screen size: about 31,000 sequences; about 1,400 (4.5%) were called active.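 The calls were made as follows: active = median seed-adjusted z-score above 1 or below -1; inactive = the rest.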 The list shows a part of the results.

This assay is described as follows: Novel Modifiers of Survival Motor Neuron (SMN) Protein: Gene Identification via Genome-wide siRNA Screen.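 Also: luminescence tracks full-length SMN protein made from the SMN2 reporter.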 Conditions: HEK293T SMN2-luciferase reporter, siRNA knockdown, 72 h; actives lie on both sides. The gist of the method:
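Steps: spot 1 pmol siRNA, add Lipofectamine RNAiMax in serum-free DMEM, seed HEK293T SMN2–luciferase reporter cells; incubate 72 h at 37 °C; add ONE-Glo; normalize luminescence to control siRNA, log10, MAD. Candidates: |MAD| > 1.0.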
For orientation: Reporter assays use an easily measured gene product as a stand-in for the process of interest.
Turning to GACAUCCCGUUGUACCUGATT against COX7A1, the median seed-adjusted z-score is inactive: -0.47.

Take GCAUUUAUGGGAAUGCUGATT against PTGR1: the median seed-adjusted z-score is inactive: 0.

For the sequence GCUCAACAUCUGUAGAUCATT against ITSN1, the median seed-adjusted z-score is inactive: 0.00218.

Regarding AGAGCAUAUUGAUGAGAGATT against MTHFD2, the median seed-adjusted z-score was inactive: -0.146.

In the case of CAUCCACACUGCAAUGAUATT against PILRB, the median seed-adjusted z-score is inactive: 0.0351.

Regarding GAAGUAAUCUGCACAGGGATT against LRRC52, the median seed-adjusted z-score was inactive: 0.118.

In the case of CCGCGGAACUGUUUGUGGATT against POLE4, the median seed-adjusted z-score was inactive: -0.0404.

Turning to CACUGUCAGUUGCAAUAUUTT against FGB, the median seed-adjusted z-score is inactive: 0.481.

As to GCAUCUAUACAGUCAAGGATT against EPDR1, the median seed-adjusted z-score was inactive: 0.369.

In the case of GCAGUGUGGUCAGUACCUUTT against RSAD1, the median seed-adjusted z-score was inactive: -0.269.

As to AGGCUGUUGUCGUCACAAATT against PRPS2, the median seed-adjusted z-score was inactive: 0.389.

Consider GGUUAGAAGAGGUGUCUAATT against NUMB, for which the median seed-adjusted z-score is inactive: -0.599.

Turning to GGACACUACAAUAAGUAUATT against ATP6V1G3, the median seed-adjusted z-score is inactive: 0.489.

Take GUAUAGGUGAUAAUCGAGATT against LANCL1: the median seed-adjusted z-score is inactive: 0.

As for CGAAAACGAUUCCCUCUAATT against SOX30, the median seed-adjusted z-score is inactive: -0.167.

For the sequence UUAUGUUUAUGGAAUGAAATT against SLC6A18, the median seed-adjusted z-score is inactive: 0.148.

For AAGACCACAUGAUCCGUAATT against SCNN1B, the median seed-adjusted z-score was inactive: 0.585.

In the case of GAACUUCCCUUAAGAGUCATT against MUC4, the median seed-adjusted z-score was inactive: 0.128.

In the case of GGGUCACAGGUUGGAAAGATT against ACBD4, the median seed-adjusted z-score was inactive: -0.363.

Turning to GGAUUAUCUGCACUCCGAATT against STK25, the median seed-adjusted z-score is inactive: -0.0703.

Turning to CAAUCUAUUAAGAAAUGUUTT against RPE, the median seed-adjusted z-score was inactive: 0.616.

Regarding CUAUAGGAAUGUUGAAUAATT against WDR33, the median seed-adjusted z-score was active: 3.27.

In the case of GACCUCACCUAGAAAUUGATT against TNF, the median seed-adjusted z-score is inactive: -0.138.

On to CAACAACUGCUACCAAGAUTT against SLC6A4, for which the median seed-adjusted z-score was active: 1.43.

CAGCAUUCUUUAUCUCGUATT against FZD3: the median seed-adjusted z-score was inactive: -0.0208.

Regarding AGAUUGUCCUCAACUUCAATT against NRP2, the median seed-adjusted z-score was inactive: 0.477.

Turning to GCGUAUCUUUGAUAGUGAATT against NARS, the median seed-adjusted z-score was inactive: -0.361.

As for CUCUAACAGUGCUCGAUUATT against COL14A1, the median seed-adjusted z-score was inactive: 0.19.

Consider GGUUGUUAAUUAUGGAUCATT against SLC24A4, for which the median seed-adjusted z-score is inactive: 0.0358.

For the sequence GACUAUCUGCAUUCGGAUATT against SIM1, the median seed-adjusted z-score was inactive: -0.0177.

As for CCGCAUAGCUCAUAGGAUATT against SMARCA2, the median seed-adjusted z-score was inactive: -0.458.

Regarding CCCUCACCAAAUACCCUGATT against KCTD1, the median seed-adjusted z-score is inactive: 0.

Take CCACUUCACAAGGCUAGAATT against PARP3: the median seed-adjusted z-score was inactive: -0.0383.

For the sequence GGUCUAUCUUCAGGGAUUATT against SAA4, the median seed-adjusted z-score was inactive: 0.104.

As to GGACAUAAUGUAUUAUACUTT against DDHD1, the median seed-adjusted z-score is inactive: 0.

For the sequence CCAUUUAAAUACAUCGUGATT against DYNLT1, the median seed-adjusted z-score was inactive: 0.764.

Consider CAACGAGACCGGCUCCAUUTT against PAX1, for which the median seed-adjusted z-score was inactive: -0.111.

As to GCAUCGGGCUACCACCAAATT against PI4K2A, the median seed-adjusted z-score is inactive: -0.486.

CAGUGUUCAUGGUCCUCCATT against CIDEC: the median seed-adjusted z-score was inactive: 0.189.

For the sequence UCAUCUUCUUUGACCCAGATT against HNF4A, the median seed-adjusted z-score was inactive: -0.0274.

As for CUACCACAAUCAUCGAAAATT against FABP3, the median seed-adjusted z-score was inactive: -0.0786.

On to CCAUUUGAGAAACCUAAUATT against GCN5L2, for which the median seed-adjusted z-score is inactive: 0.013.

Take GCAUGAUCAUUGGAGGUAUTT against BACE1: the median seed-adjusted z-score is inactive: -0.537.

Turning to GAUUAACCAAGGUUGAGAATT against CNGA1, the median seed-adjusted z-score is active: -1.08.

As to GCCCAGUACUUUGUCUACATT against CNTN2, the median seed-adjusted z-score is inactive: 0.

For CAACAACUCCAACCAGUUUTT against ITGB2, the median seed-adjusted z-score is inactive: -0.765.

As to GCAAUUCCUCAGAUAUCAATT against PTPN12, the median seed-adjusted z-score is inactive: -0.507.

For UUCUCUCCCUAAUAAAAAUTT against AVPR2, the median seed-adjusted z-score was inactive: -0.262.

Take CGAUCAGCAACCUUACAAATT against CLIP1: the median seed-adjusted z-score was inactive: 0.853.

GAAAAUCUAUCAGAACAUUTT against RAB14: the median seed-adjusted z-score is inactive: -0.0567.

With CAUUGAAGAUUGGUACAAATT against ZNF564, the median seed-adjusted z-score was inactive: 0.382.

Take GGGUUUAACUUUCAGAGAUTT against VN2R1P: the median seed-adjusted z-score was inactive: -0.25.

Consider GAAUUGAUCUGUACCAUGUTT against LALBA, for which the median seed-adjusted z-score is inactive: -0.148.

For the sequence CGCUCUAGCCUGACAUAUATT against ADAMTS3, the median seed-adjusted z-score was inactive: 0.

In the case of GCCCUACGUUUGUGAAGAATT against ZNF93, the median seed-adjusted z-score was inactive: 0.502.

For the sequence GGAUGACAUUAGCAGGUAUTT against ERCC6, the median seed-adjusted z-score was inactive: 0.0421.

As for CCAUAUGAGUCCUAUGAGATT against SMURF1, the median seed-adjusted z-score was active: -1.4.

On to GGUUCCUAUUUUACCAGUUTT against AGBL2, for which the median seed-adjusted z-score is inactive: -0.796.

Take AGAAGAUCGGAAUUCUUUATT against RGPD5: the median seed-adjusted z-score was inactive: -0.0931.

For AGUUCGUCCGCUUUCUUUUTT against P2RY4, the median seed-adjusted z-score is inactive: -0.389.

For GGACAUUGGACUAACCCAATT against EFHB, the median seed-adjusted z-score was inactive: 0.675.

As to GGAUUCAUGAGAUAGAGAATT against RAB19, the median seed-adjusted z-score is inactive: -0.0516.

On to GCUGAUUUCCGAAAAUCUATT against SMPD3, for which the median seed-adjusted z-score was inactive: -0.0115.

As to GGCCUAUCUCCUGCACAAATT against ARGFX, the median seed-adjusted z-score was inactive: 0.273.

Regarding CGACGAGACCGGAUCAAUATT against HEY1, the median seed-adjusted z-score is inactive: -0.023.

On to CGAGGUCAUUGUGCAUGAATT against FLT4, for which the median seed-adjusted z-score is inactive: -0.861.

Turning to GGUUUUCGAGUCCUAAUUATT against PTEN, the median seed-adjusted z-score is inactive: -0.408.

Turning to CGAACACCAUUCAAAGAUUTT against GRK7, the median seed-adjusted z-score is inactive: 0.288.

Regarding AGAGUUUGGUAUCUGCAAATT against ESM1, the median seed-adjusted z-score was inactive: 0.141.

As to CCUCUUUUGGAACAACAUATT against RAC2, the median seed-adjusted z-score was inactive: -0.596.

For CAGCAUUUCCCUACACGUUTT against DPP6, the median seed-adjusted z-score is inactive: 0.0505.

For the sequence UGAAGACCCAGAGAUGUAATT against PTN, the median seed-adjusted z-score is inactive: -0.174.

As to GCAGGUCAAAGUCUGGUUUTT against HOXB2, the median seed-adjusted z-score is inactive: 0.271.

GGGAUACACUGAGACGUAATT against EFHA2: the median seed-adjusted z-score is inactive: 0.166.

Consider CAGGUACCGUCAUCACAUUTT against PCDHA7, for which the median seed-adjusted z-score was inactive: 0.552.

For the sequence GGAUUACCACCAUGACAAUTT against PAK7, the median seed-adjusted z-score was inactive: -0.202.

On to CGGCUGUGGUGAACCAGUATT against INHBB, for which the median seed-adjusted z-score was inactive: -0.522.

For the sequence GGGAUGUCGUCCAAGCAUATT against KCNK17, the median seed-adjusted z-score is inactive: -0.579.

Consider CGACCACAUUGUCCGAUUUTT against AMHR2, for which the median seed-adjusted z-score was inactive: 0.557.

Take GAAAGUUCGAAUCAAUUUATT against TOX4: the median seed-adjusted z-score was inactive: 0.

For AAUUCUCCAUUGAAAUUGATT against PITPNM1, the median seed-adjusted z-score is inactive: -0.203.

For GAGGGACCGUGAAUGUCAATT against ADCY9, the median seed-adjusted z-score was inactive: 0.269.

As for GACUACGUUUGUUCGUAUATT against DSC1, the median seed-adjusted z-score was inactive: -0.151.

With CGGAGAGCGAAGACGUGAATT against SLC18A3, the median seed-adjusted z-score is inactive: -0.392.

Regarding CAUCCUGCAGAGUAUCUAATT against EPHA5, the median seed-adjusted z-score was inactive: -0.00876.

For AUUUGAAGCCUGUACAAAATT against GNG5, the median seed-adjusted z-score was inactive: -0.215.

Turning to CCAAGUUGAUGCUCUUAAATT against CCNE2, the median seed-adjusted z-score was inactive: 0.801.

For AGAUCAUUGCUUUCAGUGATT against PRDX1, the median seed-adjusted z-score is inactive: 0.288.

On to GCGCAGAGUCUUUUACGAATT against RPS6KA3, for which the median seed-adjusted z-score was inactive: -0.0233.

Take GCCUCUGAAUGAGAUUGUATT against ATP13A2: the median seed-adjusted z-score was inactive: 0.461.

CUAUGGAGAUUCAACUGCATT against LAMC1: the median seed-adjusted z-score was inactive: 0.0473.

Regarding GCCUACAAUUCACAAUAGATT against CD180, the median seed-adjusted z-score is inactive: 0.

Consider CUGAUUCUCGCAAUAAAUATT against CLCN4, for which the median seed-adjusted z-score is inactive: 0.

Turning to CAAUCAAAUUUCUAACUUUTT against MEX3D, the median seed-adjusted z-score was inactive: -0.337.

In the case of ACCGCUACGUGAUUCUGGATT against DCAKD, the median seed-adjusted z-score is inactive: 0.0872.

In the case of GCCCAGAAUUCAAUCCGAATT against ABCB7, the median seed-adjusted z-score is inactive: -0.0991.

CAGUGCUCAUGGAACUCUUTT against HMGCS2: the median seed-adjusted z-score was inactive: -0.465.

UGUCAAGCCUGAAAACCUATT against MAPKAPK3: the median seed-adjusted z-score is inactive: -0.506.

With GAGCUAACAUAUAUCAUCATT against STX5, the median seed-adjusted z-score is inactive: 0.108.

For the sequence GGAAGAUCAUCACUAGUGATT against ACSS1, the median seed-adjusted z-score was inactive: 0.243.

As to CAGUGAACGAGCAAAUAAATT against ATRIP, the median seed-adjusted z-score was inactive: 0.353.

With GCAGGAGAAAGACCGAGAATT against POLR3D, the median seed-adjusted z-score was inactive: -0.434.

On to GUUUCACCAUCGUUCGUGATT against PROKR2, for which the median seed-adjusted z-score was inactive: 0.328.

With CCUCCUACCUGAAGUUUCATT against ST8SIA4, the median seed-adjusted z-score is inactive: -0.309.

Consider GCAUGGACUUCGAUGAGUUTT against ULK1, for which the median seed-adjusted z-score is inactive: -0.214.

As for GCAUGACCCGAGUCAUUGATT against RPN1, the median seed-adjusted z-score was inactive: -0.375.

As for GUUUUGACGGAGCAACAAATT against POGK, the median seed-adjusted z-score was inactive: 0.938.

With GCUAAUAUGCAGUCCCAUATT against MCART6, the median seed-adjusted z-score is inactive: 0.714.

These data come from PubChem BioAssay AID1347426 (Functional Genomics Laboratory (NCATS/FGL), 2020).
